Test results as given in PubChem BioAssay AID1508600 (Functional Genomics Laboratory (NCATS/FGL), 2020).
The campaign covered roughly 53,000 sequences. About 3,700 (7%) were called active.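 How the source made its calls: active means gene knockdowns whose robust z-score for IL-1 alpha signal is at least 2 or at most -2, so actives lie on both sides; inactive means the rest.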 The list shows a part of the results.

Test: Components of the Cytosolic LPS Sensing Pathway: Gene Identification via Genome-wide siRNA Screen
Settings: RAW264.7 macrophages, IL-1a HTRF, actives lie on both sides, screened at 100 nM (by protocol), cells primed 5 h with Pam3CSK4 first
From the text: Non-canonical inflammasome activation by cytosolic LPS is a critical component of the host response to Gram-negative bacterial infection, however we lack a comprehensive understanding of the cellular processes that control this pathway. Here we describe a genome-wide siRNA screen to identify genes regulating the mouse macrophage IL-1 alpha response to cytosolic LPS.
RAW264.7 cells were maintained in complete DMEM media, comprising DMEM with 4.5 g/L glucose, 10% FBS (Gemini Bio-Products, West Sacramento, CA), 2 mM Glutamine (Lonza) and 20 mM HEPES (Lonza), hereafter complete DMEM.
The RNAi screen was conducted in 384-well format using the Ambion Silencer Mouse Genome siRNA Library (#4391425), which consists of three unique, nonoverlapping, nonpooled siRNAs for each of 17,000 gene targets. siRNA reagents ([…]) were stamped into 384-well white flat-bottom microplates (Corning, 3570) using a Velocity11 VPrep liquid handling system (Agilent) integrated into a BioCel robotic platform (Agilent) in columns 1-22, leaving columns 23-24 empty for negative (Ambion, Negative control #1) and positive (mouse Casp4) controls, respectively. The median value of each plate's negative control column was used to normalize sample wells, and the positive control was used to assess transfection efficiency and assay performance.
Lipofectamine RNAiMAX Transfection Reagent ([…]; Invitrogen) was added in […] serum-free, antibiotic-free media to plate wells using a Thermo Scientific Matrix WellMate and Microplate Stacker. Plates were incubated for 45 min at room temperature to allow for the sufficient formation of siRNA-lipid complexes. Cells were seeded at a density of 1x10^4 cells per well in 20 microL media containing 20% (vol/vol) FBS without antibiotics. The final concentration of siRNA in each well was 100 nM. Cells were cultured for 48h at 37 degrees C in 5% CO2 before addition of […] of TLR ligand Pam3CSK4 for 5 hours. The medium was then removed, replaced with […] growth media and cell were transfected with […] of LipidA and TransIT-TKO (Mirus) for 24 hour. At the end of the LipidA treatment, […] of supernatant was transferred to a 384 Greiner Bio-one non-binding low volume plate and […] of IL-1a HTRF reagent (Cisbio, 62MIL1APEH) was added and incubated at room temperature overnight. The plates were read on an EnVision plate reader (PerkinElmer). Cell viability was measured by adding 20ul Cell Titer Glo to the original plate and running a luminescence read on the EnVision. The quantified IL-1a signal for each siRNA gene-targeted well was divided by the median of the negative control wells and multiplied by 100 to achieve a negative control normalized value for each well/siRNA. This normalized value was then used to generate a robust z-score by first taking the log of each value and then by subtracting the median and dividing by the […].

Sequence | z-score
GGUGAAUUUGAUUGAUGAGTT against Ccnl2 | active: -2.3
GCAGUGCCUGCAGAUUCUUTT against Rnf208 | inactive: 1.06
GGAAACAUGACAGCUGCUCTT against Arpc5 | inactive: 1.12
GGAAGGAGUUCGAAGUCAUTT against Ralgds | inactive: 0.902
GGGCGAAGGGAUUACUAUUTT against Rhpn1 | inactive: -0.325
GAACUUUAUCACCUGCUUCTT against C030006K11Rik | inactive: -0.112
GCCUAUUGGGUCUACCUCCTT against C8g | inactive: -0.398
GGAUUUGUGCCCUCCUUUCTT against Ucp3 | inactive: 1.27
GGUACAGCUUAUGGAUUAATT against Pdgfra | inactive: -0.193
GGUCAUUUAUGAGAGGGCUTT against Thap11 | inactive: 0.378
GGAAGAACUUGUCUCUUUUTT against Tmtc2 | inactive: 0.501
CCAAUAGCUUCCAGAAACATT against Exoc3l4 | inactive: -1.93
GGAGUAUGCCCAUUCCAUCTT against Grm8 | inactive: -0.474
GGGUUGUAUGGCUCAAAUATT against Olfr728 | inactive: 0.734
CCCUAUCUUCAGGCCAUUGTT against Gm10283 | inactive: -1.97
GGCAGUGUUUGGCAAAUAUTT against Rbmx | inactive: 0.945
GCAGCUGGCUGCUUUCACATT against Tmem201 | inactive: -0.344
GGAAUUCAUGACCUUUACATT against Ykt6 | inactive: 0.657
GCAUCCUUUGUCGAAGUGGTT against Clec18a | inactive: -0.495
GCUUGUGAUCGACUCUGCATT against Acap3 | inactive: -1.6
GGUCCCUGCUUUGAUUCGATT against Olfr90 | inactive: 0.502
GGACAAAGAAAAAGAUUCCTT against Stxbp6 | inactive: -0.169

Sequence | z-score
GGACGUGGUGUAAAAUAGCTT against Cdkn2b | inactive: -0.241
GGUGUAUGGCUUCUGUUGATT against Rab35 | inactive: 1.37
CCCAAAACUCUAGCUACUATT against Olfr824 | active: -3.03
GCAAAGUUACCUCAGUUCUTT against Olfr539 | inactive: 0.0366
GGAGAGAGACACAAGCUUGTT against Map7d1 | inactive: 1.07
GUAAUCUGGCGAUUGUCUGTT against H2ac4 | inactive: -0.783
GGGAAAUCCGAUAUUCCCUTT against Lats2 | inactive: 1.1
GGAACAGUUUCUAAAACAGTT against Mapkbp1 | inactive: -1.83
CCUAUGGCAUCGUGUAUCGTT against Cdk10 | inactive: 0.566
GCACUUACCGGAUCCAUUGTT against Clk4 | inactive: -0.793
CGCAGACAACAGAUAAGAATT against Pdpn | inactive: -0.589
GCUGAGACCUUUAUUUAAATT against Col11a2 | inactive: 0.955
GGUGCAGGCUCUCAAGAAGTT against Ccdc106 | inactive: 0.779
GGGUUUCUGCAUUGACAUUTT against Grin2d | inactive: -0.247
GGCUGUUCGUACUAUAGCUTT against Gpr119 | inactive: 0.334
GGCUGUUCAAAGUGACCCUTT against Hbp1 | active: -3.11
GGAAUAUUCUCUCAUCACATT against Mmachc | active: -2.07
CGCACUUUGGCUUGUAAUUTT against Smad6 | inactive: 0.327
GGAAGAAGUUGGAGAUGUUTT against Hsd17b11 | inactive: -0.629
CGACCGGUGUCUUGCUUUUTT against Hint1 | inactive: 0.318
GGAAUAUUUUUUCUGGGAGTT against Ugt8a | inactive: -0.108
GGUAAAUUUGACUACCUGGTT against Fbxo36 | inactive: 0.129

Sequence | z-score
GCAACAAAUUUGAAUCAGATT against Chic2 | inactive: -0.185
CCGACACAAGAUGCUCAGUTT against Tmem9 | active: -2.3
AGAAGAUACCGAUCAAGCGTT against Nsmce3 | inactive: 0.049
GCUUGUCAUUCUUGUUGUATT against Olfr348 | inactive: -0.208
GCAUUGAGCUCGACUUCUGTT against Cpa3 | inactive: -0.533
GCACUCUCAGCAUUGGAUUTT against Sec22b | inactive: -0.751
GGAUAUGCUCAGAGGUUUUTT against Pex11g | active: 2.2
GGAAACCAGAAAAACUGAATT against Parg | inactive: 0.653
GGUUAAGUUCCUCUGGAACTT against Pnliprp2 | inactive: -0.0719
GGCUACUUUUUGGAACAUCTT against Uqcrc1 | inactive: 0.722
GGUCGGAUGGAUUCAAAUUTT against Rab3gap2 | inactive: 1.69
CCUGUAAAGUUCUUGUCGGTT against Ccrl2 | inactive: 0.45
CCUGAACAUGAGUUAAAAGTT against Lmo4 | inactive: 0.156
GGCACCUUUCAGAAAUCCCTT against 4931406B18Rik | inactive: -1.58
GGCAAUGAGUCUGACCUCUTT against Capg | inactive: -1.39
GCUGCUAUGACCUAUGGCATT against Sptlc2 | inactive: -0.543
GCCCAUUAUUGCUGAGACUTT against Fam24a | inactive: -1.6
CCCAAUGUCCCAACUCACATT against Baalc | inactive: -0.341
GGACAAGUCGAGUUUCAAGTT against Zfp503 | inactive: 1.98
CCAAUGAAACAUUUACUUCTT against Stmn4 | inactive: -0.045
GCUGUUGAUGUAGUUUGGUTT against Dctd | inactive: -0.131
GGUCAGAAGGUGUGUUAUATT against Rad52 | inactive: 0.338

Sequence | z-score
GGACCUGGACCUUUUAGAGTT against Vegfb | inactive: 1.34
GGUAGAAUUACUGUGUACUTT against Slc26a4 | inactive: -1.47
GGCAUUUGAAGAUGUUUCUTT against Hmgb3 | inactive: 0.202
GGCCGUGGUAGAUUUCCUCTT against Klhl36 | inactive: 0.425
GGAUGUGAUCCUUUUUUGATT against Nat8f2 | inactive: -0.801
GCCAAAAUAAUCCUUGGGATT against Doxl1 | inactive: -0.434
CGUGGAUAAAGAUAACCCGTT against Znrd2 | inactive: -0.117
GGCAAAGACAAGAAGCUGUTT against Drap1 | inactive: -0.445
GGACAGUGAACUUUUGACCTT against Nkain4 | inactive: 0.764
GGAACAGCAGCAUCACAGUTT against Eml3 | inactive: -0.0844
CCAAAGCCUGAAAUGGUGGTT against Cxcr4 | active: -2.36
GCGUGCAGCCCUCAAUGAATT against Ppp2r5b | inactive: 0.84
GGGACUCGGGCAGUAUUCATT against Tgm5 | inactive: -0.185
GCUUGGUCGUAUAUUGUUGTT against Slc9c1 | inactive: 1.57
GGCCUAUGAAAAGUGGCGUTT against Dpysl3 | inactive: 0.297
GGAAUGCUACUGCUCUCCUTT against Qrfp | inactive: -1.65
GGAAGUUCAAGACAUUGUUTT against Rabgef1 | inactive: 0.784
GGAAAAACUGAAACAGUUUTT against Eif3a | inactive: 1.06
CCUUUCGGACAAAAUAUGUTT against Vnn3 | inactive: 0.0615
GGAGACUGAGGAAGAAUCUTT against Atcay | inactive: -0.302
CCUCAAAGAUUAAUUCCGGTT against Acap2 | inactive: -1.38
GGAGUUUGACUCAAUAUCATT against Napb | inactive: 1.24

Quoted from the listing for reference:
Sequence | z-score
GGGACUCGGGCAGUAUUCATT against Tgm5 | inactive: -0.185
GCUUGGUCGUAUAUUGUUGTT against Slc9c1 | inactive: 1.57
GGCCUAUGAAAAGUGGCGUTT against Dpysl3 | inactive: 0.297
GGAAUGCUACUGCUCUCCUTT against Qrfp | inactive: -1.65

(further entries)

Sequence | z-score
GCAACUUUAGCAACUGCCCTT against Cc2d1b | inactive: 0.856
GGCAUCCAAUCCUGUGGAGTT against Bcl11a | inactive: -0.62
GCGAAAAAUUCGGCAGCAGTT against Arglu1 | inactive: -0.199
GGCAGUCAGACUUAGAGACTT against Dqx1 | inactive: 0.488
GGUACAGGAAACUCAAAUATT against Lrrc4 | inactive: 0.318
GGCAUUCCCUGAAUAUCGUTT against Gpx2 | inactive: -0.91
CCGUUUAACUUGGGCUGAUTT against Reg1 | inactive: -0.942
GGUGUUGAAAUCGGUUUCCTT against Ube2v1 | inactive: -0.302
CUCCUUGUCUACCUGAAUATT against Vmn1r213 | inactive: -1.44
GCAAGACCAGUGGAGUGGUTT against Sncb | inactive: -0.16
GGCACUGAUGAUUAAGCUUTT against Gale | inactive: -0.271
GGAGUUAAUUGCCCGCAACTT against Rab19 | inactive: 0.588
GGGUUUCUUCCUUGUCAGATT against Abcc3 | inactive: -1.79
GGAGCUUGCCUGAUUUUGCTT against Rfx1 | inactive: -0.118
GGCUGCCUAUCCCUAAACUTT against Cpt2 | inactive: -0.625
CGUGGUUCUUCGAGUAGAUTT against Srsf5 | inactive: 1.35
CCUCGUUCAUACGACAGAATT against Cep135 | inactive: 0.234
GGAUUCAAAGUGUGCACAATT against Lrrc3b | inactive: 1.04
GGACUUUCGAAGUAAGAUGTT against Tmem242 | inactive: -1.37
